Measurements reported in PMC5806685.

Sequences of proteins named here, by UniProt entry; tags and fusion partners are left off. A change or cut given only in a name is not applied to a line headed by its entry.
UniProt P11716: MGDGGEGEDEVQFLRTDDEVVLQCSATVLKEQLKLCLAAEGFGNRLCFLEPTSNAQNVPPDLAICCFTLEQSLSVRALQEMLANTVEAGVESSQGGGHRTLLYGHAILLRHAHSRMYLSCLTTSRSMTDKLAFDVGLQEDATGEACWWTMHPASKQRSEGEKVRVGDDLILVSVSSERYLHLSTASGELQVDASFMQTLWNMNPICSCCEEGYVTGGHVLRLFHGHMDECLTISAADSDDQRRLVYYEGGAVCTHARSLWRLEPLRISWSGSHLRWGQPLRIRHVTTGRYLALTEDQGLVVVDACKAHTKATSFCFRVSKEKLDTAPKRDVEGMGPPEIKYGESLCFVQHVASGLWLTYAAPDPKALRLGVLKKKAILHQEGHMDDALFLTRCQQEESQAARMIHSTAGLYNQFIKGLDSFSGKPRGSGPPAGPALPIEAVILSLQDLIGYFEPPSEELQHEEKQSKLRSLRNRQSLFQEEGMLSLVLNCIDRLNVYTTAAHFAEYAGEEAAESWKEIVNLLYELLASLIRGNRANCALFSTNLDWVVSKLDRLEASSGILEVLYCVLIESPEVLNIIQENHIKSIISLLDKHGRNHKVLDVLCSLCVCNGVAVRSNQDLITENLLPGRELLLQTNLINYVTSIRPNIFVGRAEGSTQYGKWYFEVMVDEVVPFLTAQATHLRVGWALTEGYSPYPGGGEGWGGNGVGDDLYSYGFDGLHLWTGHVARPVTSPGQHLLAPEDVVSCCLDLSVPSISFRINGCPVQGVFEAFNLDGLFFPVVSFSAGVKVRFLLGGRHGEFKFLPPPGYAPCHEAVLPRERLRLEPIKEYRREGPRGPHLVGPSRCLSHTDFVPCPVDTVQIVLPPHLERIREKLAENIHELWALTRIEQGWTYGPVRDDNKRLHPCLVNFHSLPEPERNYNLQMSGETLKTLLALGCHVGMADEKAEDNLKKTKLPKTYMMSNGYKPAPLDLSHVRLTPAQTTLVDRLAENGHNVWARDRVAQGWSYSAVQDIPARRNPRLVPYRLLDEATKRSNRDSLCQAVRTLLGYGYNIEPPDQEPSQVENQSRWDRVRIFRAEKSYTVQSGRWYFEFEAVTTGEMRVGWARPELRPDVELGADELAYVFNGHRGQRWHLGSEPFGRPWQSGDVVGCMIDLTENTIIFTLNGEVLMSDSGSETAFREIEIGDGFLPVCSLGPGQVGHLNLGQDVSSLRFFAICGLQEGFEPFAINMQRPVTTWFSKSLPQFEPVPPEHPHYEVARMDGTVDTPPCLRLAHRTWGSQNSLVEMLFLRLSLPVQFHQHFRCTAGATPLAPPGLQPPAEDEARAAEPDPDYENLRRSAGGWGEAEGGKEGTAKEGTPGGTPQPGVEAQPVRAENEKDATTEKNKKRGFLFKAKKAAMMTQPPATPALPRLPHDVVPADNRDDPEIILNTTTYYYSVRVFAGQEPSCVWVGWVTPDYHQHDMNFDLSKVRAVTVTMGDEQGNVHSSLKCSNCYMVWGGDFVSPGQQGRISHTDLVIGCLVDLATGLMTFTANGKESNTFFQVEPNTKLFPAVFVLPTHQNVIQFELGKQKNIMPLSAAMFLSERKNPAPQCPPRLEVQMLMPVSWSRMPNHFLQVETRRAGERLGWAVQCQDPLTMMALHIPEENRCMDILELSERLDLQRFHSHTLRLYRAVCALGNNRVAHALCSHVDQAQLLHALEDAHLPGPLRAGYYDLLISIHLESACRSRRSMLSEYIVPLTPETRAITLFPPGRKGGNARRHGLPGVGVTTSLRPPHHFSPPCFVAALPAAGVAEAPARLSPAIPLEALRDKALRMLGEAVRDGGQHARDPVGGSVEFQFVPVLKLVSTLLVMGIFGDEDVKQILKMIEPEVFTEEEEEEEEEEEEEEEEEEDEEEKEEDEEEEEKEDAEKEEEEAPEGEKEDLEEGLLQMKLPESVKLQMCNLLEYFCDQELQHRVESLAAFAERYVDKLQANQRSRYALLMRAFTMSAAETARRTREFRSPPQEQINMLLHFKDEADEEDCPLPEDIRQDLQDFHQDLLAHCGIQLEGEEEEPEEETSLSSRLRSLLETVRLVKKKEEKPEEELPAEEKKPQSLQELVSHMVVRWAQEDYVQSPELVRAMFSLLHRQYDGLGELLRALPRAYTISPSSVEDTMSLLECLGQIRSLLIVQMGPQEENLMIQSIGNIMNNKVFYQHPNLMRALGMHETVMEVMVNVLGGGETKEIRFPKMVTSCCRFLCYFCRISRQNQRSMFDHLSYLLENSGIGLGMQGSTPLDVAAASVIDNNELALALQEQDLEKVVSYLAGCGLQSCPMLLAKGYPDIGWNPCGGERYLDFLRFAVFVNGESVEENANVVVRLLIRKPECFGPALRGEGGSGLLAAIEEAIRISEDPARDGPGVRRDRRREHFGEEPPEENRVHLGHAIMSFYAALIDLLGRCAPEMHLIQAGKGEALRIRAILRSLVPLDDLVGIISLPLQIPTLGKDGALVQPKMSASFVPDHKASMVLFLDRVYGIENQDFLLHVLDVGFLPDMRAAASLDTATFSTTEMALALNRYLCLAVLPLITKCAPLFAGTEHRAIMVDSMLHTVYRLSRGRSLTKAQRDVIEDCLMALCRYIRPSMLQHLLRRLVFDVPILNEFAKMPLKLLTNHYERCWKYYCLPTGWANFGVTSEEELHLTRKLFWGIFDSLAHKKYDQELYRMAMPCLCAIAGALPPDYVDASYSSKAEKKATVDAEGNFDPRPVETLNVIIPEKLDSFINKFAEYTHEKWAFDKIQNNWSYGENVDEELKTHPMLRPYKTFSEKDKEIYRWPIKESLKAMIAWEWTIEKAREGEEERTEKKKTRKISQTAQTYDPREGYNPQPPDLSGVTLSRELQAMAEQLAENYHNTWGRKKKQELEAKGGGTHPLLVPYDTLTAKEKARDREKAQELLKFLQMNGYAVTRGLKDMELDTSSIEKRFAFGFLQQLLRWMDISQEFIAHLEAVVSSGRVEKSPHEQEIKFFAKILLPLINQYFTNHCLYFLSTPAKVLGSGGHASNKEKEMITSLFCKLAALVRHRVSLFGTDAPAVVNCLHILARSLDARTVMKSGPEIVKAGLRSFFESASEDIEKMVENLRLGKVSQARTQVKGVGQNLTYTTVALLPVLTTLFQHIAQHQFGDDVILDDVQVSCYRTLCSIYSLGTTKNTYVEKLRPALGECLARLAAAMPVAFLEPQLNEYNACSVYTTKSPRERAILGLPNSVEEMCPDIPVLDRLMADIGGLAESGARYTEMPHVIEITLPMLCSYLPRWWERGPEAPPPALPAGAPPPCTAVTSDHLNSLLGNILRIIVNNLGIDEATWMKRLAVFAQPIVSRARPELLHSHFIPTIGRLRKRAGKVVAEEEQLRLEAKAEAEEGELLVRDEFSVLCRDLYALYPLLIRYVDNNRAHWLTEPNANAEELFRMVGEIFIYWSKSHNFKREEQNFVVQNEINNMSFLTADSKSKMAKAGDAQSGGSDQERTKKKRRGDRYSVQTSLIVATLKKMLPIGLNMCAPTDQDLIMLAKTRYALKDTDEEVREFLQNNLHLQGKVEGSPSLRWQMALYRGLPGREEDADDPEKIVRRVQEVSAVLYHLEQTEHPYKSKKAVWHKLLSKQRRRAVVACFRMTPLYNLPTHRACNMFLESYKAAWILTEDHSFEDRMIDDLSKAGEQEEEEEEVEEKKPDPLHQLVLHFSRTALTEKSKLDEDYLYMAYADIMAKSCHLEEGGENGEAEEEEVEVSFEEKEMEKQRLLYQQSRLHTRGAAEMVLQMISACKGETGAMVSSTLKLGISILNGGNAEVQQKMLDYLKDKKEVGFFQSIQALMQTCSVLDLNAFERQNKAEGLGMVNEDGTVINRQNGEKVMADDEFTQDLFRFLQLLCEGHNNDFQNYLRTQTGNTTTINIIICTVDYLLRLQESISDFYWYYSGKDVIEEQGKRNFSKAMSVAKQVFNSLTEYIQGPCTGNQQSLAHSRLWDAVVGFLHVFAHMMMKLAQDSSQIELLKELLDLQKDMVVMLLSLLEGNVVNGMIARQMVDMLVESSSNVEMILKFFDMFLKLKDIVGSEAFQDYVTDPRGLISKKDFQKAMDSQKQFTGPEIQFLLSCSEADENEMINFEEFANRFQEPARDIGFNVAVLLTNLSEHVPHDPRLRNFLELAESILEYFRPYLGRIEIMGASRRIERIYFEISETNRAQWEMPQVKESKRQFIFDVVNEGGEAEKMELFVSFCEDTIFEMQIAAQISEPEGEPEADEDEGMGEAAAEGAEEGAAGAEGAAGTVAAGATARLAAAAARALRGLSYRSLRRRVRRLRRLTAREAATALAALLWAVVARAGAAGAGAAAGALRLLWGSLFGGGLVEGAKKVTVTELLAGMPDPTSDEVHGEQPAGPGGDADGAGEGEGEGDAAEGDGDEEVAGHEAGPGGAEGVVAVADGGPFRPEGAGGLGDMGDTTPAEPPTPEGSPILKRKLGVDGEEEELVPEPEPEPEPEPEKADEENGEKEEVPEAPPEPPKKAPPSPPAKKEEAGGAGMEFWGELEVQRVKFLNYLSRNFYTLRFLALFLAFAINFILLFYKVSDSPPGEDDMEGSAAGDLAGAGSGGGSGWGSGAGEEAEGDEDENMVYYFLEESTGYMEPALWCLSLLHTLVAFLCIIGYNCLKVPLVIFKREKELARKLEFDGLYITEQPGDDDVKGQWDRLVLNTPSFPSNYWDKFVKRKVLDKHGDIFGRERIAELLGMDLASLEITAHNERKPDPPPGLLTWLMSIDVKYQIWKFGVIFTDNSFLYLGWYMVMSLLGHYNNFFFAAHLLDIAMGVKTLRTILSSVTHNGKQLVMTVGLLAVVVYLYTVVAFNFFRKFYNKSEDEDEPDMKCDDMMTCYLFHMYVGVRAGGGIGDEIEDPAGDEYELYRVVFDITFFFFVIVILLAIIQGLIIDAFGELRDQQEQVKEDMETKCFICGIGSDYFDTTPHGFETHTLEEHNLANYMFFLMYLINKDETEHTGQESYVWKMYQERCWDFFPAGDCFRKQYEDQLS

Assays:
[1] = target: EYFP-RyR1_(1:4300) (N-terminal 4,300 residues of rabbit type 1 ryanodine receptor), expressed in tsA201 cells (rabbit) (UniProt P11716); experiment: SEC
[2] = target: EYFP-RyR1_(1:4300) (N-terminal 4,300 residues of rabbit type 1 ryanodine receptor), expressed in tsA201 cells (rabbit) (UniProt P11716); experiment: FRET or BRET

percent in complexes larger in size than the monomer [1]: 25% | FRET efficiency [2]: 3.2
Substance: EYFP-RyR1_(1:4300) (N-terminal 4,300 residues of rabbit type 1 ryanodine receptor), expressed in tsA201 cells, P11716 1-4300
